{
  "source": "patent US8987474B2",
  "about": "(University of South Florida, priority 2006, dated 2015)",
  "key": {"[1]": {"tested_on": "Ras", "test": "Ras activation assay (GST-RBD pulldown) in MDA-MB-468 cells", "assay_type": "cell-based, human"}, "[2]": {"tested_on": "paxillin dephosphorylation", "test": "EGF-induced paxillin dephosphorylation in MDA-MB-468 cells", "assay_type": "cell-based, human"}},
  "note": "For at least one compound, name, drawing or mass did not settle the structure.",
  "data": [
    {"smiles": "O=S(=O)(O)c1ccc2cc(/N=N\\c3cc(S(=O)(=O)O)c4cccnc4c3O)ccc2c1", "note": "[NSC-87877, 8-hydroxy-7-(6-sulfonaphthalen-2-yl)diazenyl-quinoline-5-sulfonic acid]", "values": [
      {"measurement": "EGF-induced Ras activation", "setting": "[1]", "value": "blocked"},
      {"measurement": "EGF-induced paxillin dephosphorylation", "setting": "[2]", "value": "inhibited"}
    ]}
  ]
}
